According to patent US8399033B2, “Anti-bacterial composition comprising extract from barks of Alnus pendula Matsum” (Chung-Ang University Industry Academic Cooperation …, priority 2009, dated 2013):
Some entries share one result that the patent states for a list of compounds.

Test system: S. aureus MSSA ATCC 25923, MRSA 33591, DPS-1 and 2 strains
Experiment: MIC by liquid media dilution assay, range over the four strains
Assay type: cell-based, Staphylococcus aureus
Conditions: range over S. aureus MSSA ATCC 25923, MRSA 33591, DPS-1 and 2

Question: With `O=C(/C=C/CCc1ccc(O)c(O)c1)CCc1ccc(O)c(O)c1` [compound 2, 1,7-bis-(3,4-dihydroxyphenyl)-4-heptene-3-one] as the molecule, how does the “MICs, range over strains” value read?
Answer: 62.5 to 250 µg/mL
